Values from PubChem BioAssay AID493246 (Drosophila RNAi Screening Center, 2011).
Aim: 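Identify essential fly genes by loss of cell viability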 (primary screen). System: Drosophila Kc and S2R+ cells. Knock-down reagent: long dsRNA against Drosophila genes. Detection: 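Raw, unnormalised count of remaining cells in each well; per-plate z-scores of cell number underlie the calls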. Scale: Kc cell number and S2R+ cell number: higher = more cells remaining. Rule for the call: 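Active when the per-plate z-score of cell number is 3 or more in the direction of fewer cells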.
The screen tested about 21,000 reagents; below is an unselected part of those that have a named target and a result. Of all reagents, 429 (2%) got an active call. 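Values are raw and not normalised between plates; calls rest on per-plate z-scores that were not deposited.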 The record does not give: the amount of reagent, the time to read-out.

predicted target,amplicon,"Kc cell number, rep 1","Kc cell number, rep 2","S2R+ cell number, rep 1","S2R+ cell number, rep 2",call
CG13458 (GeneID 39646),DRSC10005,1.44e6,1.42e6,1.23e6,1.26e6,inactive
Coq8 (GeneID 32239),DRSC19900,1.50e6,1.49e6,1.01e6,1.07e6,inactive
Golgin104 (GeneID 39810),DRSC10459,1.61e6,1.64e6,1.25e6,1.33e6,inactive
U2af50 (GeneID 32602),DRSC20297,4.93e5,,8.62e5,,inactive
CG8093 (GeneID 36686),DRSC07078,1.64e6,1.60e6,1.22e6,1.37e6,inactive
TwdlU (GeneID 5740279),DRSC12224,1.52e6,1.56e6,1.46e6,1.55e6,inactive
Glys (GeneID 41823),DRSC16130,1.66e6,1.74e6,1.40e6,1.47e6,inactive
ATP8B (GeneID 41469),DRSC14961,1.58e6,1.52e6,1.26e6,1.31e6,inactive
CG33169 (GeneID 40504),DRSC11853,1.37e6,1.36e6,1.35e6,1.44e6,inactive
Obp56c (GeneID 170882),DRSC06552,1.43e6,1.40e6,1.08e6,1.18e6,inactive
CG15625 (GeneID 33694),DRSC00460,1.46e6,1.33e6,1.08e6,1.24e6,inactive
mtDNA-helicase (GeneID 34307),DRSC02912,1.65e6,1.60e6,1.33e6,1.48e6,inactive
CG6409 (GeneID 39220),DRSC10630,1.34e6,1.41e6,1.06e6,1.20e6,inactive
CG4577 (GeneID 33291),DRSC00658,1.39e6,1.49e6,1.05e6,1.20e6,inactive
CG14567 (GeneID 40420),DRSC11728,1.33e6,1.51e6,1.25e6,1.32e6,inactive
Acat2 (GeneID 38147),DRSC08630,1.61e6,1.48e6,9.93e5,1.31e6,inactive
MED26 (GeneID 43816),DRSC17126,1.39e6,1.62e6,1.04e6,1.03e6,inactive
MED26 (GeneID 43816),DRSC17147,1.59e6,1.64e6,9.40e5,1.01e6,inactive
MED26 (GeneID 43816),DRSC17148,5.20e5,,8.18e5,,inactive
CG15394 (GeneID 33446),DRSC00408,1.51e6,1.55e6,1.04e6,1.23e6,inactive
RpLP0-like (GeneID 36058),DRSC06424,1.29e6,1.44e6,9.31e5,9.23e5,inactive
Fdh (GeneID 41311),DRSC16670,1.64e6,1.68e6,1.34e6,1.56e6,inactive
rod (GeneID 43719),DRSC17047,1.49e6,1.67e6,1.02e6,1.12e6,inactive
Prosbeta7 (GeneID 40639),DRSC12186,1.02e6,1.07e6,6.75e5,7.98e5,active

Just “S2R+ cell number, rep 2”, for 3 of the entries above:
CG14567 (GeneID 40420) [DRSC11728] = 1.32e6
Acat2 (GeneID 38147) [DRSC08630] = 1.31e6
MED26 (GeneID 43816) [DRSC17126] = 1.03e6
